Among the data in PMC1702558 are binding values, retold here.

Results are given in words; binding and its absence hold for the method and conditions named. Binding seen in cells or lysates may run through a third protein. Some entries that bind do so weakly or less than the wild type.

In the experiment the target is T1, CD44 (mouse (endogenous in cultured keratinocytes and DBA/1 epidermis)) (UniProt P15379).
T1 sequence: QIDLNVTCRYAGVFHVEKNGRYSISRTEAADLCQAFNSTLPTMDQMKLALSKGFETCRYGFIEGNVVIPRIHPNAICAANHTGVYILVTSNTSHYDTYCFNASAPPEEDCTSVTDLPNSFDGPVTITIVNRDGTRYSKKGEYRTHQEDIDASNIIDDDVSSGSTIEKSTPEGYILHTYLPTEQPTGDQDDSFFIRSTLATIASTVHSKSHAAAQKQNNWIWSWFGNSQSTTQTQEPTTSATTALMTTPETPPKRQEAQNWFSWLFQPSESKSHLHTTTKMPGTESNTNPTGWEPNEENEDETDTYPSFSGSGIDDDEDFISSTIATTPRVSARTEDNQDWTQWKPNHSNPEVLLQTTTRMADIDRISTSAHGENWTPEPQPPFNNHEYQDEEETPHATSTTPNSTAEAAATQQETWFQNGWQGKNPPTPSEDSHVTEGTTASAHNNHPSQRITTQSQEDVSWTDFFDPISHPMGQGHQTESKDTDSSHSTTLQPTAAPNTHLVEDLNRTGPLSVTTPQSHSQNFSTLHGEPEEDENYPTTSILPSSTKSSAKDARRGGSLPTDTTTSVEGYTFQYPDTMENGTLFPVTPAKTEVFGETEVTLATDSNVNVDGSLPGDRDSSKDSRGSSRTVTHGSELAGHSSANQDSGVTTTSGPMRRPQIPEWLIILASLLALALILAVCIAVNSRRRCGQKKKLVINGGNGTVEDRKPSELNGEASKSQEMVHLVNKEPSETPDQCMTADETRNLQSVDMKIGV
Put plainly: co-IP; anti-CD44 antibodies with protein A+G agarose beads, overnight at 4 °C, in the presence of BSA and rat IgG; lysates of cultured keratinocytes and of epidermis of DBA/1 mouse skin; Western blot with anti-erbB1; mock: isotype-matched rat IgG. (In western blotting, separated proteins are transferred to a membrane and probed.)

“erbB1 (from UniProt Q01279 25-1210) (receptor)”: the binding entry is given as “binds”.
